# Laboratory results taken from patent US9650407B2, “Reprogramming of cellular adhesion” (The Regents of the University of California, priority 2011, dated 2017).
# At least one compound was matched to its structure with a doubt left.
# Test system: heterogeneous MCF10ARas/MCF10AWT microtissues
# Test: Emergent phenotypes in heterogeneous MCF10ARas/MCF10AWT microtissues in 3D lrECM culture
# Assay type: cell-based
# Conditions: over 24 hr in culture vs DMSO control; LY294002 20 μM, PD325901 200 nM, Sorafenib 10 μM, PIK-90 2 μM; DNase added immediately after sorting
# Experimental: Sorafenib was a gift from Kevan Shokat (UCSF0 and used at 10 μM. PIK-90 was purchased from Calbiochem and used at 2 μM. High activity DNase was purchased from Ambion. Ethidium homodimer-1 was purchased from Invitrogen and used at 1 μM.
# The following antibodies were used for western blot: E-cadherin (BD Biosciences), tubulin (Sigma-Aldrich), phospho-Erk and phospho-Akt (Cell Signaling Technology), pan-Ras (Calbiochem), goat anti-mouse-HRP, and goat anti-rabbit-HRP (Thermo Scientific). […]
# Time-lapse images of aggregates were acquired on a Zeiss 200M inverted fluorescence microscope equipped with an XCite […] light source and a Hamamatsu camera. […] Phenotypes were scored in Slidebook 5.0 software after acquisition. Microtissues that merged with other microtissues or single cells were not scored due to confounding effects on cell motility.
# Apoptotic cells were excluded from phenotype quantification, as judged by cell morphology (FIG. 27, Panels A-E) or uptake of ethidium homodimer-1 (FIG. 28, Panels C, G, and H). […] H2B-GFP-expressing cells that broke away from tissues and moved alone were scored as protruding cells due to their altered morphology and motility.
smiles,measurement,value
O=c1cc(N2CCOCC2)oc2c(-c3ccccc3)cccc12 [LY294002],formation/frequency of motile multicellular protrusions,reduced
same,frequency of basal extrusions,slightly increasing
